± gives the expanded uncertainty stated by the source.
Assay: relative permittivity at zero frequency (dimensionless)
Settings: 303.15 K; 101.33 kPa; Liquid; Parallel plate capacitor

Compound: CC(=O)N(C)C [N,N-dimethylethanamide]
- relative permittivity at zero frequency: 37.72 ± 0.23
